# Counter-ions that a name gives are not always drawn. ± gives the standard deviation of the averaged measurements. Some of the results follow. The data scatter; read single values as rough.
# System: hAMSC donor 2
# Assay: transgenic luciferase activity (RLU/mg protein) fold change vs vehicle control (ratio); hAMSC are human adipose-derived mesenchymal stem cells given an EGFP-luciferase plasmid by lipofection; higher = more transgene expression
# Conditions: priming compound concentration 0.2 µM
row,Structure (SMILES),transgenic luciferase activity
1,COC(=O)N1CCN(C(=O)Cc2ccc(Cl)c(Cl)c2)C(CN2CCCC2)C1 (stereo unspecified),0.632 ± 0.033
2,c1ccc(Cn2ccnc2)cc1 [Benzylimidazole],1.09 ± 0.28
3,C[C@]12CC[C@H](O)CC1=CC[C@@H]1[C@@H]2CC[C@]2(C)C(=O)CC[C@@H]12 [Dehydroepiandrosterone],0.662 ± 0.23
4,O=C1CC[C@@]2(O)[C@H]3Cc4ccc(O)c5c4[C@@]2(CCN3CC2CC2)[C@H]1O5 [Naltrexone hydrochloride],1.14 ± 0.12
5,N=C(NCc1ccc(Cl)cc1)SCCCc1c[nH]cn1 [Clobenpropit],0.469 ± 0.39
6,C=C(C)[C@@H]1[C@H]2OC(=O)[C@@H]1[C@]1(O)C[C@H]3O[C@]34C(=O)O[C@H]2[C@]14C.CC(C)(O)[C@@H]1[C@H]2OC(=O)[C@@H]1[C@]1(O)C[C@H]3O[C@]34C(=O)O[C@H]2[C@]14C [Picrotin - Picrotoxinin],1.2 ± 0.38
7,C[C@]12Cc3c[nH]nc3C[C@@H]1CC[C@@H]1[C@@H]2CC[C@@]2(C)[C@H]1CC[C@]2(C)O [Stanozolol],0.479 ± 0.14
8,C[N+]1(C)CCCC(OC(=O)C(O)(c2ccccc2)c2ccccc2)C1 (stereo unspecified) [Mepenzolate bromide],0.77 ± 0.19
9,CN[C@@H]1C[C@@H](c2ccc(Cl)c(Cl)c2)c2ccccc21 [Indatraline hydrochloride],0.927 ± 0.4
10,C#CCN(C)[C@H](C)Cc1ccccc1 [Selegiline hydrochloride],0.639 ± 0.19
11,C[C@]12CC[C@H]3[C@@H](CCC4=CC(=O)CC[C@@]43C)[C@@H]1CC[C@@H]2O [Testosterone],0.736 ± 0.11

# Reformatted with bars between the fields: part of the list above.
row | Structure (SMILES) | transgenic luciferase activity
10 | C#CCN(C)[C@H](C)Cc1ccccc1 [Selegiline hydrochloride] | 0.639 ± 0.19
11 | C[C@]12CC[C@H]3[C@@H](CCC4=CC(=O)CC[C@@]43C)[C@@H]1CC[C@@H]2O [Testosterone] | 0.736 ± 0.11
